Measured values taken from patent publication US20220010008A1.

Molecular target: recombinant monkey IL-5 (monkey (cynomolgus macaques))
Test: ELISA

Binder	binding
147D7H2 (murine hybridoma antibody) (antibody, V domains shown) VH: EVQLQQSGAELVKPGASVKLSCTASGFNIKDYFIHWVKQRTEQGLEWIGRIDTEDGETKYAPKFQGKATITIDTSSNTAYLYFSSLTSEDTAMYYCARYGNYVAMDYWGQGTSVTVSS VL: QIVLTQSPALMSASPGEKVTMTCSASSSVSYMFWYQQKPSSSPKPWIYLTSKLASGVPARFSGSGSGTSYSLTISSVEAEDAATYYCQQWNSNPYTFGGGTKLEIK	binds
151G3B11 mouse-human chimeric antibody (antibody, human IgG4, V domains shown) VH: EVHLQQSGAELVKPGASVKLSCTASGFNIKDYYMHWVKQRTEQGLEWIGRIDPEDGETKYAPKFQGQATITADTSSNTANLQLSSLTSEDTAVYYCARYGNFPDYWGPGTTLTVSS VL: QIVLTQSPALMSASPGEKVTMTCSASSSVSYMYWYQQKPRSSPKPWIYLTSKLASGVPARFSGSGSGTSYSLTISSMEAEDAATYYCQQWNSNPYTFGGGTKLEIK	binds
147D7H2 mouse-human chimeric antibody (antibody, human IgG4, V domains shown) VH: EVQLQQSGAELVKPGASVKLSCTASGFNIKDYFIHWVKQRTEQGLEWIGRIDTEDGETKYAPKFQGKATITIDTSSNTAYLYFSSLTSEDTAMYYCARYGNYVAMDYWGQGTSVTVSS VL: QIVLTQSPALMSASPGEKVTMTCSASSSVSYMFWYQQKPSSSPKPWIYLTSKLASGVPARFSGSGSGTSYSLTISSVEAEDAATYYCQQWNSNPYTFGGGTKLEIK	binds
151G3B11 (murine hybridoma antibody) (antibody, V domains shown) VH: EVHLQQSGAELVKPGASVKLSCTASGFNIKDYYMHWVKQRTEQGLEWIGRIDPEDGETKYAPKFQGQATITADTSSNTANLQLSSLTSEDTAVYYCARYGNFPDYWGPGTTLTVSS VL: QIVLTQSPALMSASPGEKVTMTCSASSSVSYMYWYQQKPRSSPKPWIYLTSKLASGVPARFSGSGSGTSYSLTISSMEAEDAATYYCQQWNSNPYTFGGGTKLEIK	binds

Other lines, results leading:

binding	Binder
binds	154F10G8 (murine hybridoma antibody) (antibody, V domains shown) VH: QVQLQQPGAELVKPGASVKLSCKASGYTFTSYWITWVKQRPGQGLEWIGDIYPGSGSTFYNEKFKSEATLTVDTSSSTAYMQLSSLTSEDSAVFYCSTETTLGYWGQGTTLTVSS VL: DVLMTQTPLSLPVSLGDQASISCRSSQSIVHNNGNTYLEWYLQKPGQSPKLLIYKVSNRFSGVPDRFSGSGSGTDFTLKISRVEAEDLGVYYCFQGSHVPFTFGSGTKLEIK
binds	154F10G8 mouse-human chimeric antibody (antibody, human IgG4, V domains shown) VH: QVQLQQPGAELVKPGASVKLSCKASGYTFTSYWITWVKQRPGQGLEWIGDIYPGSGSTFYNEKFKSEATLTVDTSSSTAYMQLSSLTSEDSAVFYCSTETTLGYWGQGTTLTVSS VL: DVLMTQTPLSLPVSLGDQASISCRSSQSIVHNNGNTYLEWYLQKPGQSPKLLIYKVSNRFSGVPDRFSGSGSGTDFTLKISRVEAEDLGVYYCFQGSHVPFTFGSGTKLEIK

These are yes or no findings as the source states them, for the method shown. Binding can be weak; no strength is given.
